Some of the results follow. Shown are side measurements of this screen, not its main read-out; they come without a call. Compounds called inactive in the main read-out are mostly missing here. Words in brackets tell the shape of the fitted curve; partial curves, single points and poor fits give uncertain potencies.
Test: qHTS Assay for Lipid Storage Modulators in Drosophila S3 Cells;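 as to cell number change: cells counted by Cell Tracker Red CMTPX staining in the red channel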
Conditions: BODIPY lipid droplet fluorescence, 18-24 h; for cell number change: measured here: cell count max response, cells fed with added oleic acid
In short: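 Drosophila S3 cells got compounds at several concentrations plus oleic acid (400 uM solution). Laser-scanning cytometry with 488 nm excitation read lipid droplets at 500-530 nm and cells at 575-640 nm. Percent activity was relative to 20 uM Triacsin C.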

[1] = measured here: lipid fluorescence (Fed channel) AC50, cells fed with added oleic acid
[2] = measured here: cell number channel AC50, cells fed with added oleic acid

O=C(Nc1ccc2c(c1)OCCO2)C1CCN(S(=O)(=O)Cc2ccccc2)CC1
cell number change: -2.36%
AC50 [1]: 14.6 µM [rising, single point]

O=C1CCCN1CN(C(=O)c1ccccc1)c1ccc(F)cc1
cell number change: 15.8%
AC50 [1]: 4.11 µM [falling, single point]

CCCSc1ccc([C@@H]2[C@H]3C(=O)N(CC)C(=O)[C@H]3[C@]3(C(=O)OC)CCCN23)cc1
cell number change: 17.6%
AC50 [1]: 29.1 µM [rising, single point]

Cc1ccc(NC(=O)CSc2nnc(-c3ccccn3)n2N)cc1F
cell number change: 15%
AC50 [1]: 0.164 µM [rising, full curve]

COC(=O)N[C@@H]1C[C@H]2[C@@H]3CC[C@H]4C[C@@H](OC)CC[C@]4(C)[C@H]3CC[C@@]12C
cell number change: -31.3%
AC50 [2]: 25.9 µM [falling, single point]

Cn1c(=O)c2c(nc(NCCNC(=O)c3ccco3)n2Cc2ccccc2)n(C)c1=O
cell number change: 10%
AC50 [1]: 1.16 µM [rising, single point]

O=C(Nc1ccc2c(c1)OCCO2)C1CCN(C(=O)c2ccc(Br)cc2)CC1
cell number change: -25.2%
AC50 [2]: 2.31 µM [falling, partial curve]
AC50 [1]: 6.51 µM [falling, partial curve, poor fit]

CCc1noc(C)c1C(=O)N(CC)c1nc2c(C)cccc2s1
cell number change: -0.679%
AC50 [1]: 18.4 µM [falling, partial curve, poor fit]

CCOc1ccccc1CN1CCN(Cc2cn(C)nc2-c2ccccc2)CC1CCO (stereo unspecified)
cell number change: 6.09%
AC50 [1]: 6.51 µM [falling, single point]

COc1ccc(OCc2cc(C(=O)NCC3(C)COC3)no2)c(Cl)c1
AC50 [1]: 29.1 µM [rising, single point]

O=C(NC1CCCC1)C(c1ccncc1)N(CCCN1CCOCC1)C(=O)c1ccc(-c2ccccc2)[nH]1 (stereo unspecified)
cell number change: 42.3%

CCC(=O)Nc1ccc(-c2csc(NNC(C)=O)n2)cc1
cell number change: 7.65%
AC50 [1]: 5.8 µM [falling, partial curve]

COc1cc(-c2nnc(SCC(=O)c3ccccc3)o2)cc(OC)c1OC
cell number change: -2.01%
AC50 [1]: 7.31 µM [rising, partial curve]

O=C(Nc1nnc(-c2cccnc2)o1)c1cccc(Cl)c1
cell number change: 27.4%
AC50 [2]: 3.66 µM [rising, single point]

CCN1C(=O)CC(NNC(=O)c2ccccc2)C1=O (stereo unspecified)
cell number change: 26.9%
AC50 [1]: 13 µM [rising, partial curve, poor fit]

CC(C)CNC(=O)c1cc(=O)[nH]c2ccc(S(=O)(=O)Nc3ccc(F)cc3)cc12
cell number change: 0.42%

C=CCn1c(=O)n(CCOC)c(=O)c2sc3ccccc3c21
cell number change: 63.5%
AC50 [2]: 29.1 µM [rising, single point]

CC(C)c1ccccc1-n1c(SCC(=O)c2ccc3c(c2)NC(=O)CO3)nc2ccccc2c1=O
cell number change: -5.41%
AC50 [2]: 0.82 µM [rising, single point]
AC50 [1]: 0.58 µM [rising, partial curve, poor fit]

COc1ccc(NC(=O)CCC(=O)Nc2nnc(C(F)(F)F)s2)c(OC)c1
cell number change: -44.4%
AC50 [2]: 16.4 µM [falling, partial curve, poor fit]

CCOC(=O)c1cc(C)sc1NC(=O)c1ccc(Cl)s1
cell number change: 0.232%
AC50 [2]: 0.651 µM [rising, partial curve]
AC50 [1]: 0.517 µM [rising, single point]

CCCC(=O)NCc1ccccc1Cl
cell number change: -3.82%
AC50 [2]: 0.00461 µM [falling, full curve, poor fit]

COc1cccc(-n2nnc3c(=O)n(CC(=O)N4CCC(Cc5ccccc5)CC4)cnc32)c1
cell number change: -19.7%

N#Cc1ccc(C(=O)Nc2nnc(-c3cccs3)o2)cc1
cell number change: -24.2%
AC50 [1]: 20.6 µM [falling, single point]

CN(C)CCNc1oc(-c2ccccc2Cl)nc1S(=O)(=O)c1ccccc1
cell number change: 14.9%
AC50 [1]: 3.26 µM [rising, full curve]

CCCCn1c(C(C)NC(=O)c2cccs2)nc2ccccc21 (stereo unspecified)
cell number change: 89.6%
AC50 [2]: 9.2 µM [rising, partial curve]
AC50 [1]: 2.06 µM [rising, partial curve]

O=C(CN1c2ccccc2Sc2ccccc21)NNC(=O)Nc1ccc(Cl)c(Cl)c1
cell number change: -39.7%
AC50 [2]: 32.6 µM [falling, single point]

Cn1c(=O)c2c(nc(Br)n2C)n(C)c1=O
cell number change: 24%
AC50 [1]: 11.6 µM [rising, partial curve]

COc1ccc(/C=C(\NC(=O)c2ccccc2)C(=O)N2CCC(C)CC2)cc1
cell number change: -2.66%
AC50 [1]: 10.3 µM [falling, single point]

CCn1c(=O)cc(O)c2c(=O)n(C)c(=O)n(C)c21
cell number change: 26.4%
AC50 [1]: 29.1 µM [rising, single point]

Nc1nc(SCC(=O)Nc2ccc3c(c2)CCC3)n[nH]1
cell number change: 16%
AC50 [1]: 1.03 µM [rising, full curve, poor fit]

O=C(CCNC(=O)c1ccco1)Nc1ccc(F)c(Cl)c1
cell number change: 2.82%

Cc1ccc(NC(=O)C(OC(=O)c2ccccc2Cl)c2ccccc2)cc1Cl (stereo unspecified)
cell number change: 19.1%
AC50 [1]: 3.26 µM [rising, partial curve]

COc1cc2c(cc1OC)C(c1ccccc1Cl)N(C)CC2 (stereo unspecified)
cell number change: 14.6%
AC50 [1]: 29.1 µM [rising, single point]

CCN(CC)CCOC(=O)c1ccc(N/C=C(/C#N)c2nc(-c3ccc4c(c3)OCO4)cs2)cc1
cell number change: -12.9%

CCc1ccc(NC(=O)C(=O)NCC2CCCN2S(=O)(=O)c2ccccc2)cc1 (stereo unspecified)
cell number change: 25%
AC50 [1]: 25.9 µM [falling, partial curve, poor fit]

COc1cc(/C=N/n2cnnc2)ccc1OCCSc1ccc(C)cc1
cell number change: -27.6%
AC50 [1]: 16.4 µM [falling, single point]

S=c1[nH]cnc2scc(-c3ccc(Br)cc3)c12
cell number change: -13.9%
AC50 [1]: 0.116 µM [falling, full curve, poor fit]

Cc1ccc2nc(N3C(=O)C(O)=C(C(=O)c4ccc(C)o4)C3c3ccco3)sc2c1 (stereo unspecified)
cell number change: -30.2%
AC50 [2]: 1.46 µM [falling, full curve, poor fit]
AC50 [1]: 3.26 µM [falling, partial curve]

CCOC(=O)C(NS(=O)(=O)c1ccccc1)(C(F)(F)F)P(=O)(OCC(C)C)OCC(C)C (stereo unspecified)
cell number change: -105%
AC50 [2]: 4.61 µM [falling, partial curve]
AC50 [1]: 0.58 µM [falling, full curve, poor fit]

Cc1cc(=O)[nH]c(N/N=C/c2ccccc2C(F)(F)F)n1
cell number change: 36.3%
AC50 [2]: 18.4 µM [rising, single point]

COc1ccc(CCNC(=O)CSc2nc3[nH]ncc3c(=O)n2-c2ccc(Cl)cc2Cl)cc1OC
cell number change: -25.4%
AC50 [1]: 29.1 µM [falling, single point]

O=C(NC1CCCCC1)C(c1ccc(O)cc1)N(CC1CCCO1)C(=O)C1COc2ccccc2O1 (stereo unspecified)
cell number change: 3.42%

CCOC(=O)C(NCCOC)(NC(C)=O)C(F)(F)F (stereo unspecified)
cell number change: -3.2%
AC50 [1]: 1.46 µM [falling, full curve]

CC1CCCCN1S(=O)(=O)c1ccc(S(=O)(=O)N(CC(=O)Nc2ccccc2)Cc2cccs2)cc1 (stereo unspecified)
cell number change: 0.963%
AC50 [1]: 29.1 µM [rising, single point]

O=C(Nc1ccnn1C1CCN(Cc2cccc(OCCO)c2)CC1)C1CC1
cell number change: -2.93%
AC50 [1]: 25.9 µM [rising, single point]

COc1ccc(-n2c(=O)[nH]cc(C(=O)Nc3ccc(NC(C)=O)cc3)c2=O)cc1
cell number change: -9.4%
AC50 [1]: 1.64 µM [falling, partial curve]

CSc1nc(-c2ccco2)nn1S(C)(=O)=O
cell number change: -7.01%
AC50 [1]: 5.8 µM [falling, partial curve]

CCOC(=O)Nc1c(O)ccc2oc(C)c(-c3ccccc3)c12
cell number change: -8.75%
AC50 [1]: 4.11 µM [rising, full curve, poor fit]

CCNc1nc(NCC)nc(N/N=C/c2ccc(Br)cc2)n1
AC50 [2]: 2.59 µM [rising, partial curve]

O=C(CCC(=O)NC1CCCCCCC1)Nc1nnc(C(F)(F)F)s1
cell number change: 17.4%
AC50 [1]: 0.0058 µM [falling, full curve, poor fit]

CCOc1ccc(N2C(=O)CN=C2Nc2ccccc2F)cc1
cell number change: -12.3%

CCn1c2ccccc2c2nnc(SCC(=O)Nc3ncccn3)nc21
cell number change: -8.24%
AC50 [1]: 0.206 µM [rising, full curve, poor fit]

O=C(c1c[nH]c(C(=O)C(Cl)(Cl)Cl)c1)c1ccccc1Cl
AC50 [1]: 7.31 µM [falling, partial curve]

Cc1cc(/C=C(\C#N)C(=O)NCc2ccco2)c(C)n1C1CCCC1
cell number change: 40.7%
AC50 [2]: 29.1 µM [rising, single point]

CCOc1ccccc1N(C)C(=O)c1ccc2c(=O)n3c(nc2c1)CCCCC3
cell number change: -68.3%
AC50 [2]: 5.17 µM [falling, partial curve]
AC50 [1]: 1.16 µM [falling, full curve]

CCOC(=O)C(C)On1c(-n2nc(C)cc2C)nc2ccccc2c1=O (stereo unspecified)
cell number change: -3.6%
AC50 [2]: 6.51 µM [rising, single point]

CCC(C)(C)NC(=O)C(c1cccc(OC)c1OC)N(Cc1ccccc1)C(=O)CCC(=O)Nc1cc(C)on1 (stereo unspecified)
cell number change: 4.35%

Clc1cccc(-c2nc(NCc3cccnc3)c3ccccc3n2)c1
cell number change: 115%
AC50 [2]: 20.6 µM [rising, single point]
AC50 [1]: 29.1 µM [rising, partial curve]

Cc1nnsc1C(=O)NNc1ccc(C(C)C)cc1
cell number change: 25.9%
AC50 [2]: 0.259 µM [rising, full curve, poor fit]
AC50 [1]: 2.31 µM [rising, partial curve]
